The list shows a part of the results. Shown are side measurements of this screen, not its main read-out; they come without a call. Most of these compounds were active or inconclusive in the main read-out, so they are no random draw. The note in brackets gives the kind of curve behind each potency; many fits are weak.
Test: qHTS Assay for Lipid Storage Modulators in Drosophila S3 Cells;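 on cell number change: cells counted by Cell Tracker Red CMTPX staining in the red channel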
Conditions: BODIPY lipid droplet fluorescence, 18-24 h; for cell number change: measured here: cell count max response, cells fed with added oleic acid
Method in brief: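 Laser-scanning cytometry quantifies lipid droplet accumulation (500–530 nm total intensity; droplet/cell object ratio) in oleic acid-fed (400 uM added) Drosophila S3 cells treated with a concentration series. 20 uM Triacsin C defined 100% inhibition.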

[1] = measured here: lipid fluorescence (Fed channel) AC50, cells fed with added oleic acid
[2] = measured here: cell number channel AC50, cells fed with added oleic acid

**Q.** Which cell number change does the source give for `COc1cccc(CNC(=O)N2CCN(c3ccccc3Cl)CC2)c1` here?
**A.** 24.6%

**Q.** What about the AC50 [1] of the same compound?
**A.** 29.1 µM [rising, single point]

**Q.** Which cell number change does the source give for `COc1ccc(OC)c(NC(=O)CSc2n[nH]c(-c3cccnc3)n2)c1` here?
**A.** -9.52%

**Q.** What about the AC50 [1] of the same compound?
**A.** 0.231 µM [rising, full curve, poor fit]

**Q.** Which cell number change does the source give for `COc1ccc(C(=O)Nc2nccs2)cc1` here?
**A.** -2.19%

**Q.** For `O=C(O)C1C2CCC(C2)C1C(=O)NCCC1=CCCCC1` (centres undefined), which cell number change is on record?
**A.** 18.9%

**Q.** What about the AC50 [1] of the same compound?
**A.** 29.1 µM [rising, single point]

**Q.** Which cell number change does the source give for `COc1ccc(S(=O)(=O)N2CCN(S(=O)(=O)c3c(F)cccc3F)CC2)cc1` here?
**A.** 36%

**Q.** For `O=C(COC(=O)/C=C/c1ccccc1)NCCNC(=O)COC(=O)/C=C/c1ccccc1`, which cell number change is on record?
**A.** 2.64%

**Q.** What about the AC50 [1] of the same compound?
**A.** 6.51 µM [falling, single point]

**Q.** Which AC50 [1] does the source give for `COC(=O)C1=C(C)N(CCCC(=O)O)C(=O)NC1c1cc2c(cc1[N+](=O)[O-])OCO2` (centres undefined) here?
**A.** 1.64 µM [rising, partial curve]

**Q.** With `Cc1cc(OCc2nn[nH]n2)c2c(C)c(Cc3ccccc3)c(=O)oc2c1` as the compound, how does the cell number change read?
**A.** 15.7%

**Q.** Which results are given for `C=Cc1ccc(Cn2nc(-c3ccc(C)cc3)ccc2=O)cc1`?
**A.** cell number change: -14.2%; AC50 [1]: 29.1 µM [falling, single point]

**Q.** What does the source list for `COc1ccccc1NS(=O)(=O)c1ccc(/C=C/C(=O)N2CCN(C(C)=O)CC2)cc1`?
**A.** cell number change: 10.4%; AC50 [1]: 10.3 µM [falling, partial curve]

**Q.** Which results are given for `O=C(CCc1nnc2ccc(N3CCCCC3)nn12)NCC1CCN(Cc2ccc(F)cc2)CC1`?
**A.** cell number change: 6.11%; AC50 [1]: 29.1 µM [falling, single point]

**Q.** With `CCc1ccc(NC(=O)CCn2cccc2)cc1` as the compound, how does the AC50 [2] read?
**A.** 2.31 µM [falling, partial curve]

**Q.** For `Cc1cccc2cc(C(c3nnnn3CC3CCCO3)N3CCOCC3)c(=O)[nH]c12` (centres undefined), which cell number change is on record?
**A.** -2.77%

**Q.** And the AC50 [1]?
**A.** 0.58 µM [falling, single point]

**Q.** For `CC1CCC(C(C)C)C(OC(=O)CSc2nccc(=O)[nH]2)C1` (centres undefined), which cell number change is on record?
**A.** -82.6%

**Q.** What about the AC50 [2] of the same compound?
**A.** 23.1 µM [falling, partial curve]

**Q.** Which cell number change does the source give for `CCOc1ccccc1NC(=O)/C=C/c1ccccc1[N+](=O)[O-]` here?
**A.** -34.4%

**Q.** And the AC50 [2]?
**A.** 32.6 µM [falling, single point]

**Q.** And the AC50 [1]?
**A.** 18.4 µM [rising, single point]

**Q.** Which cell number change does the source give for `CCn1c(SCC(=O)NCCc2ccc(OC)c(OC)c2)nc2c1c(=O)n(C)c(=O)n2C` here?
**A.** 10.3%

**Q.** And the AC50 [2]?
**A.** 0.146 µM [falling, single point]

**Q.** For `COC(=O)c1ccc(NC(=O)CSCc2ccccc2C)cc1`, which cell number change is on record?
**A.** -1.52%

**Q.** And the AC50 [1]?
**A.** 0.651 µM [falling, single point]

**Q.** For `CCOC(=O)C1CCN(Cc2oc(CO)cc(=O)c2O)CC1`, which cell number change is on record?
**A.** -20.6%

**Q.** And the AC50 [2]?
**A.** 0.461 µM [falling, full curve, poor fit]

**Q.** Which cell number change does the source give for `Cc1nc(NC(=O)c2cc3ccccc3o2)ccc1Br` here?
**A.** -31.7%

**Q.** And the AC50 [2]?
**A.** 0.326 µM [falling, full curve, poor fit]

**Q.** With `COc1ccc(NC(=O)C2C3C=CC4(O3)C2C(=O)N(CCCN2CCCC(C)C2)C4C(=O)NC2CCCCC2)cc1` (centres undefined) as the compound, how does the cell number change read?
**A.** -7.62%

**Q.** And the AC50 [1]?
**A.** 18.4 µM [rising, partial curve]

**Q.** What does the source list for `CC[C@@H](C)[C@H](NC(=O)Cc1c(C)c2cc3c(C)coc3c(C)c2oc1=O)C(=O)O`?
**A.** cell number change: 39%; AC50 [2]: 23.1 µM [rising, partial curve]

**Q.** For `COCCCNC(=O)c1cc2c(-c3ccc(Cl)cc3)nn(C)c2s1`, which AC50 [2] is on record?
**A.** 3.26 µM [rising, partial curve]

**Q.** Which results are given for `COc1ccc(NC(=O)CS(=O)(=O)Cc2nc(-c3ccc(C)cc3)oc2C)cc1`?
**A.** cell number change: 179%; AC50 [2]: 20.6 µM [rising, single point]; AC50 [1]: 0.00461 µM [falling, full curve, poor fit]

**Q.** What does the source list for `Cc1noc(NS(=O)(=O)c2ccc(NC(=O)CSc3ncccn3)cc2)c1C`?
**A.** cell number change: -54.8%; AC50 [2]: 32.6 µM [falling, single point]; AC50 [1]: 32.6 µM [falling, partial curve]

**Q.** Which cell number change does the source give for `Cc1ccc(C(=O)Nc2ccccc2C(=O)NC(CC(=O)O)C(=O)O)cc1` (centres undefined) here?
**A.** 11.7%

**Q.** What does the source list for `Cc1ccc(S(=O)(=O)N2CCOCC2)cc1NC(=O)CSc1nnnn1C1CCCC1`?
**A.** cell number change: 1.94%; AC50 [1]: 2.59 µM [rising, single point]

**Q.** With `C=CCn1c(C)cc(C(=O)COc2ccc(C)nc2[N+](=O)[O-])c1C` as the compound, how does the cell number change read?
**A.** -37.7%

**Q.** What about the AC50 [2] of the same compound?
**A.** 29.1 µM [falling, single point]

**Q.** With `O=C(/C=C/c1ccccc1Cl)NCc1ccco1` as the compound, how does the cell number change read?
**A.** -24.3%

**Q.** What about the AC50 [1] of the same compound?
**A.** 29.1 µM [falling, single point]

**Q.** With `COC(=O)c1c(C(=O)OC)c2ccccn2c1C(=O)c1ccccc1` as the compound, how does the cell number change read?
**A.** 4.11%

**Q.** And the AC50 [1]?
**A.** 0.731 µM [falling, full curve]

**Q.** Which cell number change does the source give for `Cc1nc(N)sc1N=Nc1ccc(F)cc1` here?
**A.** -7.03%

**Q.** For `O=C(NC1CCCCC1)C1CCCN(c2nnnn2-c2ccccc2)C1` (centres undefined), which cell number change is on record?
**A.** 25.9%

**Q.** And the AC50 [1]?
**A.** 13 µM [rising, partial curve]

**Q.** What does the source list for `COc1ccc(NS(=O)(=O)c2cccc(C(=O)N/N=C/c3cn(-c4ccccc4)nc3-c3ccc(OC)cc3)c2)cc1`?
**A.** cell number change: 18.9%; AC50 [1]: 0.164 µM [rising, full curve, poor fit]

**Q.** What does the source list for `CC(C)(C)c1cnnn1-c1ccc([N+](=O)[O-])cc1`?
**A.** cell number change: 0.947%; AC50 [1]: 0.651 µM [falling, single point]

**Q.** With `O=c1c2ccccc2oc2cc(NCCCN3CCOCC3)ccc12` as the compound, how does the cell number change read?
**A.** 23.3%

**Q.** And the AC50 [1]?
**A.** 29.1 µM [rising, single point]

**Q.** For `Cc1ccc(C)c(N2CCN(C(=O)Cc3ccc(NC4=NC5CS(=O)(=O)CC5S4)cc3)CC2)c1` (centres undefined), which cell number change is on record?
**A.** -9.8%

**Q.** Which cell number change does the source give for `CCn1c(SCC(=O)Nc2cc(C)on2)nc2sc3c(c2c1=O)CCCC3` here?
**A.** -60.7%

**Q.** What about the AC50 [2] of the same compound?
**A.** 7.31 µM [falling, partial curve]

**Q.** And the AC50 [1]?
**A.** 5.8 µM [falling, partial curve]

**Q.** What does the source list for `COc1ccc(OCCC(=O)OCC(=O)NCCc2ccccc2)cc1`?
**A.** cell number change: 0.82%; AC50 [1]: 29.1 µM [falling, partial curve, poor fit]

**Q.** With `O=c1c2ccccc2nc(-c2ccco2)n1CCc1ccc(O)cc1` as the compound, how does the cell number change read?
**A.** -22.2%

**Q.** And the AC50 [2]?
**A.** 2.06 µM [falling, partial curve, poor fit]

**Q.** And the AC50 [1]?
**A.** 23.1 µM [rising, partial curve]

**Q.** With `CCCN(CCC)CCCNC(=O)c1ccc(CS(=O)(=O)c2c(Cl)cccc2Cl)o1` as the compound, how does the cell number change read?
**A.** 23.5%

**Q.** And the AC50 [1]?
**A.** 1.3 µM [rising, partial curve, poor fit]

From PubChem BioAssay AID2685 (National Center for Advancing Translational Sciences (NCATS), 2010)
